PubChem BioAssay AID1671195 | Yale University | 2021
The deposit covers about 22,000 reagents; this is a random part of them. Over the whole deposit, about 1,510 (6.9%) got an active call. 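Active includes knockdowns raising or lowering LDL uptake; positive z-scores mean more uptake, negative mean less.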 A number with no mark means an inactive call.

Assay: 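Knockdowns that increase or decrease uptake of fluorescent LDL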 (primary screen)
System: human Huh7 hepatoma cells
Knock-down reagent: siRNA pool against human genes, 18 nM
Timing: about 2 to 2.5 days of knockdown, then 8 h LDL uptake
Conditions: DiI-labelled LDL at 30 µg/ml for 8 h, in lipoprotein-deficient serum medium
Measurement: 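Per-cell DiI-LDL intensity by automated imaging; well means scaled to the plate median and given as a robust z-score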
Direction: robust z-score: higher = more LDL uptake after knockdown
Rule for the call: 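a gene counts as active if at least two replicate z-scores exceed ±2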

gene	PubChem SID	robust z-score, replicate 1	robust z-score, replicate 2	robust z-score, replicate 3
EIF4A1P6	SID442900248	-0.729	-0.745	-0.729
LINC00664	SID442893110	0.128	0.322	-0.188
PCDHGC4	SID442883947	2.71 (active)	1.93	1.76
SERPINC1	SID442897764	-1.1	-1.02	0.861
OSBPL5	SID442903816	-1.46	-1.28	-1.46
TPT1P8	SID442902358	-1.11	-1.02	-1.04
RPL7P47	SID442889427	0.768	0.697	0.217
C1GALT1C1	SID442890849	0.414	0.657	0.0181
SLC17A9	SID442904051	-1.2	-1.27	-1.95
LOC440931 (retired record)	SID442893558	0.277	-0.206	0.0377
HYLS1	SID442904253	-1.45	-1.56	-1.63
PPP2R5C	SID442888449	0.702	1.04	0.406
HAUS2	SID442893839	-0.616	0.863	-0.231
BLTP3A	SID442895728	0.0826	-0.938	0.254
CHD9	SID442886980	1.22	0.966	0.857
ZNF30	SID442894422	-0.304	0.163	-0.0459
S100A7A	SID442899737	-0.192	-0.667	-1.13
C19orf47	SID442893648	0.75	-0.084	-0.588
SAA1	SID442887086	0.96	0.745	1.26
NXF2	SID442902866	-0.861	-1.23	-1.4
LOC285694 (retired record)	SID442891598	0.164	0.291	0.342
KRTAP19-2	SID442894501	0.092	-0.139	-0.165
RANGAP1	SID442895258	-0.171	-0.828	0.546
LOC441799 (retired record)	SID442900103	-0.57	-0.606	-0.962
REEP1	SID442898324	-0.336	-0.594	-0.529
LOC133185 (retired record)	SID442900682	-1.39	0.0196	-1.01
OCA2	SID442889678	0.663	0.263	0.646
CYP3A5	SID442895620	-0.258	-0.297	-0.0069
LOC441793 (retired record)	SID442899112	-0.395	-0.503	-0.835
CIMAP2	SID442892310	0.0843	0.423	0.0437
LOC440984 (retired record)	SID442887005	1.12	1.1	0.805
LOC345711 (retired record)	SID442896971	-0.231	-0.636	-0.13
EML6	SID442888457	0.917	0.735	0.497
ALS2	SID442897817	-0.753	-0.156	-0.379
LOC402103 (retired record)	SID442889310	0.118	0.706	0.916
PFDN1	SID442884930	1.92	1.63	1.77
SLC9B1	SID442901099	-0.407	-0.892	-1.25
DCAF8	SID442901322	-0.615	-0.543	-1.49
NOB1	SID442886710	0.987	1.28	0.979
PYY2	SID442884607	4.1	1.75	1.5
VIPAS39	SID442889153	0.916	0.591	0.307
PITPNA	SID442897046	-0.052	-0.333	-0.637
ZFY	SID442900005	-0.739	-0.671	-0.684
RNF220	SID442899914	-1.15	-1.12	0.208
HERPUD1	SID442884271	-1.1 (active)	-1.7	-2.24
RPP30	SID442900687	-1.03	-0.514	-0.835
CACNA1G	SID442904533	-1.58	-1.62	-1.87
PIGB	SID442884693	2.6	1.4	1.88
PNMT	SID442895236	-0.245	0.108	-0.309
CEP164	SID442883907	2.59 (active)	2.11	1.8
PLEKHO1	SID442896876	-0.973	0.508	-0.501
COL21A1	SID442893199	-0.158	0.199	0.192
FILIP1L	SID442889316	0.866	-0.332	1.2
UNQ9370 (retired record)	SID442887040	0.0561	2.11	0.831
OAS3	SID442890809	-0.239	1.7	-0.362
LOC441579 (retired record)	SID442903586	-1.04	-1.51	-1.45
CYP3A7	SID442895000	-0.093	-0.242	-0.0315
ACSM3	SID442890610	0.444	0.183	0.549
STRN	SID442895903	-1.39	-0.0842	0.821
KLHL27	SID442902624	-0.861	-1.22	-1.26
FHDC1	SID442883269	4.14 (active)	2.51	3.99
BCLAF3	SID442900031	-0.824	-0.871	-0.412
PRDX4	SID442893568	-0.0567	-0.0467	0.207
FCHO1	SID442903447	-2.03	-0.22	-1.64
LOC440685 (retired record)	SID442896993	-0.743	-0.256	-0.00574
CCSAP	SID442897134	0.157	-0.144	-1.07
CHMP1A	SID442902630	-1.16	-1.25	-0.938
RAD23B	SID442884458	-2.02 (active)	-2.72	-1.74
EMP2	SID442895374	-0.544	0.192	-0.138
ST3GAL3	SID442894027	-0.203	-0.0165	0.166
CBARP	SID442887021	0.53	1.04	1.44
GAS1	SID442895271	0.0534	-0.0908	-0.419
ASXL3	SID442885765	1.55	1.49	1.09
VAMP3	SID442889443	1.87	-0.594	0.403
POU2AF1	SID442889851	-0.345	2.06	-0.215
EFHD2	SID442900507	-0.461	-0.777	-1.07
FOXP2	SID442883834	2.39 (active)	2.26	2.1
YDJC	SID442899271	-0.716	-0.327	-0.754
ARHGEF17	SID442889404	0.656	1.99	-0.947
NDUFA8	SID442895344	1.18	-0.629	-1.03
PWP1	SID442897109	-0.125	-0.638	-0.284
LRRC37A5P	SID442904496	-1.38	-1.21	-2.43
PPIB	SID442899355	-0.92	-0.175	-0.73
ZDBF2	SID442902379	-0.716	-1.27	-1.2
TBX20	SID442885821	0.407	2.41	1.25
NKX2-6	SID442903882	-1.47	-1.55	-1.24
ASB6	SID442894554	0.427	-0.736	0.0859

Part of the list above, reformatted:
gene | PubChem SID | robust z-score, replicate 1 | robust z-score, replicate 2 | robust z-score, replicate 3
SLC17A9 | SID442904051 | -1.2 | -1.27 | -1.95
LOC440931 (retired record) | SID442893558 | 0.277 | -0.206 | 0.0377
HYLS1 | SID442904253 | -1.45 | -1.56 | -1.63
PPP2R5C | SID442888449 | 0.702 | 1.04 | 0.406
HAUS2 | SID442893839 | -0.616 | 0.863 | -0.231
BLTP3A | SID442895728 | 0.0826 | -0.938 | 0.254
CHD9 | SID442886980 | 1.22 | 0.966 | 0.857
ZNF30 | SID442894422 | -0.304 | 0.163 | -0.0459
S100A7A | SID442899737 | -0.192 | -0.667 | -1.13
